Numbering of substitutions follows the chain as printed. For some assays here: Weaker means in comparison with the reference protein, sequence or condition of that experiment. Tags and fusion partners may be left off the protein sequences shown. For some assays here: For at least one entry, the source does not settle the construct or the ends of the probe. For some assays here: At least one verdict was read from the data and is not stated in words by the source.
Columns and labels:
Experiment in all cases: EMSA
[1] = target: T1, LiRecT W96A (Listeria innocua CLIP 11262) (UniProt Q92FL9); details: EMSA: PBS pH 7.4 (or KH2PO4/10 mM MgCl2 pH 6.0), 3.6 or 5 uM protein, 25 uM nt DNA, 37 C 15 min per strand, 0.8% agarose 1x TBE, recombinant protein, residues 1-271, protein details: N-terminal 6His vector tag (20 aa) retained
T1 sequence (looked up): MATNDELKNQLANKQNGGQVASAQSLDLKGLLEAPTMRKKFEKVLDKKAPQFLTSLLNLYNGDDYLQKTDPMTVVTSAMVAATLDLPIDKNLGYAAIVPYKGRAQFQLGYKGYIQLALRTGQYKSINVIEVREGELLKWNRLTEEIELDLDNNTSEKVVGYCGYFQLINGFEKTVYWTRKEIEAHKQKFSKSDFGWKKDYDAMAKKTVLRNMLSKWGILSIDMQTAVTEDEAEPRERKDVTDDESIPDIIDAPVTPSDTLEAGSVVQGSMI

[2] = target: T2, LiRecT R210A (Listeria innocua CLIP 11262) (UniProt Q92FL9); details: EMSA: PBS pH 7.4 (or KH2PO4/10 mM MgCl2 pH 6.0), 3.6 or 5 uM protein, 25 uM nt DNA, 37 C 15 min per strand, 0.8% agarose 1x TBE, recombinant protein, residues 1-271, protein details: N-terminal 6His vector tag (20 aa) retained
T2 sequence (looked up): T1 sequence (looked up) with A96W, R210A

[3] = target: T3, LiRecT F171A (Listeria innocua CLIP 11262) (UniProt Q92FL9); details: EMSA: PBS pH 7.4 (or KH2PO4/10 mM MgCl2 pH 6.0), 3.6 or 5 uM protein, 25 uM nt DNA, 37 C 15 min per strand, 0.8% agarose 1x TBE, recombinant protein, residues 1-271, protein details: N-terminal 6His vector tag (20 aa) retained
T3 sequence (looked up): T1 sequence (looked up) with A96W, F171A

[4] = target: T4, LiRecT K215A (Listeria innocua CLIP 11262) (UniProt Q92FL9); details: EMSA: PBS pH 7.4 (or KH2PO4/10 mM MgCl2 pH 6.0), 3.6 or 5 uM protein, 25 uM nt DNA, 37 C 15 min per strand, 0.8% agarose 1x TBE, recombinant protein, residues 1-271, protein details: N-terminal 6His vector tag (20 aa) retained
T4 sequence (looked up): T1 sequence (looked up) with A96W, K215A

[5] = target: T5, LiRecT I218A (Listeria innocua CLIP 11262) (UniProt Q92FL9); details: EMSA: PBS pH 7.4 (or KH2PO4/10 mM MgCl2 pH 6.0), 3.6 or 5 uM protein, 25 uM nt DNA, 37 C 15 min per strand, 0.8% agarose 1x TBE, recombinant protein, residues 1-271, protein details: N-terminal 6His vector tag (20 aa) retained
T5 sequence (looked up): T1 sequence (looked up) with A96W, I218A

[6] = target: T6, LiRecT L118A (Listeria innocua CLIP 11262) (UniProt Q92FL9); details: EMSA: PBS pH 7.4 (or KH2PO4/10 mM MgCl2 pH 6.0), 3.6 or 5 uM protein, 25 uM nt DNA, 37 C 15 min per strand, 0.8% agarose 1x TBE, recombinant protein, residues 1-271, protein details: N-terminal 6His vector tag (20 aa) retained
T6 sequence (looked up): T1 sequence (looked up) with A96W, L118A

[7] = target: T7, LiRecT K191A/F194A (Listeria innocua CLIP 11262) (UniProt Q92FL9); details: EMSA: PBS pH 7.4 (or KH2PO4/10 mM MgCl2 pH 6.0), 3.6 or 5 uM protein, 25 uM nt DNA, 37 C 15 min per strand, 0.8% agarose 1x TBE; recombinant protein; residues 1-271; protein details: N-terminal 6His vector tag (20 aa) retained; label: 5'-Cy3,5'-Cy5
T7 sequence (looked up): T1 sequence (looked up) with A96W, K191A, F194A

[8] = target: T8, λ-Redβ (bacteriophage lambda) (UniProt P03698); details: EMSA: PBS pH 7.4 (or KH2PO4/10 mM MgCl2 pH 6.0), 3.6 or 5 uM protein, 25 uM nt DNA, 37 C 15 min per strand, 0.8% agarose 1x TBE; recombinant protein; label: 5'-Cy3; single-stranded DNA
T8 sequence (looked up, limits assumed): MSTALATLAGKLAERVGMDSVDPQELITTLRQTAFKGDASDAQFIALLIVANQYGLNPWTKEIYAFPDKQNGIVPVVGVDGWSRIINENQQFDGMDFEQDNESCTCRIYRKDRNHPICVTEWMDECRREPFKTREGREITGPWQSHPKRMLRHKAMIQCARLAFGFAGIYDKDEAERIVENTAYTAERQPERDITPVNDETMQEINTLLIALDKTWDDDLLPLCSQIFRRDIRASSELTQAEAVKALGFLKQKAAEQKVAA

[9] = label: 5'-Cy5, single-stranded DNA
[10] = label: 5'-Cy3, single-stranded DNA

Measured: binding result

CCATCCGCAAAAATCGAGCTATGCAGGGCGATTCTGCTCTAAGCCATCCG [Cy5-50mer]
binds: [1]; [9] | [2]; [9] | [3]; [9] | [4]; [9] | [5]; [9] | [6]; [9]

GCGGATGGCTTAGAGCAGAATCGCCCTGCATAGCTCGATTTTTGCGGATG / CCATCCGCAAAAATCGAGCTATGCAGGGCGATTCTGCTCTAAGCCATCCG [50-mer duplex intermediate (sequential addition)]
binds: [1]; label: 5'-Cy3,5'-Cy5 | [2]; label: 5'-Cy3,5'-Cy5 | [3]; label: 5'-Cy3,5'-Cy5 | [4]; label: 5'-Cy3,5'-Cy5 | [5]; label: 5'-Cy3,5'-Cy5 | [6]; label: 5'-Cy3,5'-Cy5
binds more weakly: [7]

GCGGATGGCTTAGAGCAGAATCGCCCTGCATAGCTCGATTTTTGCGGATG [Cy3-50mer]
binds: [1]; [10] | [2]; [10] | [3]; [10] | [4]; [10] | [5]; [10] | [6]; [10]
binds more weakly: [8]
